The values that follow are results of earlier work, collected in patent US20100172981A1, “Ibuprofen-Effervescent Preparation Having a High Dissolution Rate and Method for the Production thereof” (Losan Pharma GMBH, priority 2006, published 2010).

For the series the following is noted: general statement in the background section.

Regarding `CC(C)Cc1ccc(C(C)C(=O)O)cc1` (stereo not shown) [ibuprofen, 2-(4-isobutylphenyl) propionic acid], the “solubility / dissolution in water (words, background)” value was “virtually insoluble in water”.
